In US7767669B2, “Small molecule PI 3-kinase inhibitors and methods of their use” (Novartis AG, priority 2002, dated 2010):
Some of these results come from one statement about several compounds together.

Columns and labels:
[1] = target: PI3 kinase; assay: PI3K one step solid phase assay (Method 2); type: biochemical; conditions: read-out: IC50 value with respect to PI3K
[2] = target: PI3 kinase; assay: PI3K homogenous solution phase assay (Method 1); type: biochemical; conditions: homogeneous solution assay (Method 1); read-out: IC50 value with respect to PI3K

Structure (SMILES) | IC50 [1] [µM] | IC50 [2] [µM]
Oc1cccc(-c2cc(Nc3cccnc3)nc(N3CCOCC3)n2)c1 [Example 59, 3-[2-morpholin-4-yl-6-(pyridin-3-ylamino)pyrimidin-4-yl]phenol] | < 20 | < 20
C[C@@H](Nc1cc(-c2cccc(O)c2)nc(N2CCOCC2)n1)c1ccccc1 [Example 62, 3-(2-morpholin-4-yl-6-{[(1R)-1-phenylethyl]amino}pyrimidin-4-yl)phenol] | < 20 | < 20
Oc1cccc(-c2cc(Nc3ccccc3)nc(N3CCOCC3)n2)c1 [Example 63, 3-(6-anilino-2-morpholin-4-ylpyrimidin-4-yl)phenol] | < 20 | < 20
COc1cccc(-c2cc(N3CCOCC3)nc(N3CCOCC3)n2)c1 [Example 71, 4-[4-(3-methoxyphenyl)-6-morpholin-4-ylpyrimidin-2-yl]morpholine] | < 20 | < 20
Oc1ccccc1-c1cc(Nc2ccc3[nH]ncc3c2)nc(N2CCOCC2)n1 [Example 72, 2-[6-(1H-indazol-5-ylamino)-2-morpholin-4-ylpyrimidin-4-yl]phenol] | < 20 | < 20
COCCNc1cc(-c2cccc(O)c2)nc(N2CCOCC2)n1 [Example 73, 3-{6-[(2-methoxyethyl)amino]-2-morpholin-4-ylpyrimidin-4-yl}phenol] | < 20 | < 20
CCC(CO)(CO)Nc1cc(-c2cccc(O)c2)nc(N2CCOCC2)n1 [Example 74, 2-ethyl-2-{[6-(3-hydroxyphenyl)-2-morpholin-4-ylpyrimidin-4-yl]amino}propane-1,3-diol] | < 20 | < 20
Oc1cccc(-c2cc(NC3CCC(O)CC3)nc(N3CCOCC3)n2)c1 (centres unmarked) [Example 79, 3-{6-[(4-hydroxycyclohexyl)amino]-2-morpholin-4-ylpyrimidin-4-yl)phenol] | < 20 | < 20
C[C@@H]1COC[C@H](C)N1c1cc(-c2cccc(O)c2)nc(N2CCOCC2)n1 [Example 81, 3-{6-[(3R,5S)-3,5-dimethylmorpholin-4-yl]-2-morpholin-4-ylpyrimidin-4-yl}phenol] | < 20 | < 20
O=[N+]([O-])c1ccc(N2CCN(c3cc(-c4cccc(O)c4)nc(N4CCOCC4)n3)CC2)cc1 [Example 82, 3-{2-morpholin-4-yl-6-[4-(4-nitrophenyl)piperazin-1-yl]pyrimidin-4-yl}phenol] | < 20 | < 20
Oc1cccc(-c2cc(N3CCN(c4ccccn4)CC3)nc(N3CCOCC3)n2)c1 [Example 85, 3-[2-morpholin-4-yl-6-(4-pyridin-2-ylpiperazin-1-yl)pyrimidin-4-yl]phenol] | < 20 | < 20
CC(=O)N1CCN(c2cc(-c3cccc(O)c3)nc(N3CCOCC3)n2)CC1 [Example 86, 3-[6-(4-acetylpiperazin-1-yl)-2-morpholin-4-ylpyrimidin-4-yl]phenol] | < 20 | < 20
Oc1cccc(-c2cc(N3CCCNCC3)nc(N3CCOCC3)n2)c1 [Example 87, 3-[6-(1,4-diazepan-1-yl)-2-morpholin-4-ylpyrimidin-4-yl]phenol] | < 20 | < 20
Oc1cccc(-c2cc(NCc3ccccn3)nc(N3CCOCC3)n2)c1 [Example 89, 3-{2-morpholin-4-yl-6-[(pyridin-2-ylmethyl)amino]pyrimidin-4-yl}phenol] | < 20 | < 20
Oc1cccc(-c2cc(NCc3ccncc3)nc(N3CCOCC3)n2)c1 [Example 91, 3-{2-morpholin-4-yl-6-[(pyridin-4-ylmethyl)amino]pyrimidin-4-yl}phenol] | < 20 | < 20
CCOc1ccc(NC(C)=O)cc1Nc1cc(-c2cccc(O)c2)nc(N2CCOCC2)n1 [Example 118, N-(4-ethoxy-3-{[6-(3-hydroxyphenyl)-2-morpholin-4-ylpyrimidin-4-yl]amino]phenyl)acetamide] | < 20 | < 20
Oc1cccc(-c2cc(Nc3ccc4nn[nH]c4c3)nc(N3CCOCC3)n2)c1 [Example 119, 3-[6-(1H-1,2,3-benzotriazol-6-ylamino)-2-morpholin-4-ylpyrimidin-4-yl]phenol] | < 20 | < 20

Structure (SMILES) | IC50 [1] [µM] | IC50 [2] [µM]
c1cc(OCCN2CCCCC2)cc(-c2cc(Nc3ccc4[nH]ncc4c3)nc(N3CCOCC3)n2)c1 [Example 122, N-{2-morpholin-4-yl-6-[3-(2-piperidin-1-ylethoxy)phenyl]pyrimidin-4-yl}-1H-indazol-5-amine] | < 20 | < 20
COc1cccc(N2CCN(c3cc(-c4cccc(O)c4)nc(N4CCOCC4)n3)CC2)c1 [Example 124, 3-{6-[4-(3-methoxyphenyl)piperazin-1-yl]-2-morpholin-4-ylpyrimidin-4-yl}phenol] | < 20 | < 20
Oc1cccc(-c2cc(Nc3ccc(O)nc3)nc(N3CCOCC3)n2)c1 [Example 133, 5-{[6-(3-hydroxyphenyl)-2-morpholin-4-ylpyrimidin-4-yl]amino}pyridin-2-ol] | < 20 | < 20
Oc1cccc(-c2cc(Nc3ncccn3)nc(N3CCOCC3)n2)c1 [Example 137, 3-[2-morpholin-4-yl-6-(pyrimidin-2-ylamino)pyrimidin-4-yl]phenol] | < 20 | < 20
CCCC(=O)Oc1cccc(-c2cc(Nc3cccnc3)nc(N3CCOCC3)n2)c1 [Example 143, 3-[2-morpholin-4-yl-6-(pyridin-3-ylamino)pyrimidin-4-yl]phenyl butyrate] | < 20 | < 20
CC(=O)Oc1cccc(-c2cc(Nc3cccnc3)nc(N3CCOCC3)n2)c1 [Example 144, 3-[2-morpholin-4-yl-6-(pyridin-3-ylamino)pyrimidin-4-yl]phenyl acetate] | < 20 | < 20
CC(C)(C)C(=O)Oc1cccc(-c2cc(Nc3cccnc3)nc(N3CCOCC3)n2)c1 [Example 145, 3-[2-morpholin-4-yl-6-(pyridin-3-ylamino)pyrimidin-4-yl]phenyl pivalate] | < 20 | < 20
CC(C)C(=O)Oc1cccc(-c2cc(Nc3cccnc3)nc(N3CCOCC3)n2)c1 [Example 146, 3-[2-morpholin-4-yl-6-(pyridin-3-ylamino)pyrimidin-4-yl]phenyl 2-methylpropanoate] | < 20 | < 20
Nc1cccc(-c2cc(Nc3cccnc3)nc(N3CCOCC3)n2)c1 [Example 147, 6-(3-aminophenyl)-2-morpholin-4-yl-N-pyridin-3-ylpyrimidin-4-amine] | < 20 | < 20
Oc1cccc(-c2cc(Nc3cccnc3)nc(N3CCOCC3)n2)c1F [Example 148, 2-fluoro-3-[2-morpholin-4-yl-6-(pyridin-3-ylamino)pyrimidin-4-yl]phenol] | < 20 | < 20
CC(C)[C@H](N)C(=O)Oc1cccc(-c2cc(Nc3cccnc3)nc(N3CCOCC3)n2)c1 [Example 149, 3-[2-morpholin-4-yl-6-(pyridin-3-ylamino)pyrimidin-4-yl]phenyl valinate] | < 20 | < 20
Oc1cc(-c2cc(Nc3cccnc3)nc(N3CCOCC3)n2)ccc1Cl [Example 150, 2-chloro-5-[2-morpholin-4-yl-6-(pyridin-3-ylamino)pyrimidin-4-yl]phenol] | < 20 | < 20
CS(=O)(=O)Nc1cccc(-c2cc(Nc3cccnc3)nc(N3CCOCC3)n2)c1 [Example 151, N-{3-[2-morpholin-4-yl-6-(pyridin-3-ylamino)pyrimidin-4-yl]phenyl}methanesulfonamide] | < 20 | < 20
Oc1ccc(F)c(-c2cc(Nc3cccnc3)nc(N3CCOCC3)n2)c1 [Example 152, 4-fluoro-3-[2-morpholin-4-yl-6-(pyridin-3-ylamino)pyrimidin-4-yl]phenol] | < 20 | < 20
Oc1ccc(Br)c(-c2cc(Nc3cccnc3)nc(N3CCOCC3)n2)c1 [Example 153, 4-bromo-3-[2-morpholin-4-yl-6-(pyridin-3-ylamino)pyrimidin-4-yl]phenol] | < 20 | < 20
Cc1ccc(-c2cc(Nc3cccnc3)nc(N3CCOCC3)n2)cc1O [Example 154, 2-methyl-5-[2-morpholin-4-yl-6-(pyridin-3-ylamino)pyrimidin-4-yl]phenol] | < 20 | < 20
COC(=O)Oc1cccc(-c2cc(Nc3cccnc3)nc(N3CCOCC3)n2)c1 [Example 155, methyl 3-[2-morpholin-4-yl-6-(pyridin-3-ylamino)pyrimidin-4-yl]phenyl carbonate] | < 20 | < 20
